The values that follow come from PubChem BioAssay AID2685 (National Center for Advancing Translational Sciences (NCATS), 2010).

For orientation: AC50 means the midpoint of the concentration-response curve, whichever way the signal moves. A low value points to greater potency.

This is one part of the list. Shown are side measurements of this screen, not its main read-out; they come without a call. The list favours compounds with an active or inconclusive main result. Words in brackets tell the shape of the fitted curve; partial curves, single points and poor fits give uncertain potencies.

The assay in a line: qHTS Assay for Lipid Storage Modulators in Drosophila S3 Cells.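 On cell number change: cells counted by Cell Tracker Red CMTPX staining in the red channel.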 The conditions noted are these: BODIPY lipid droplet fluorescence, 18-24 h; for cell number change: measured here: cell count max response, cells fed with added oleic acid. The gist of the method:
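Drosophila S3 cells got compounds at several concentrations plus oleic acid (400 uM solution). Laser-scanning cytometry with 488 nm excitation read lipid droplets at 500-530 nm and cells at 575-640 nm. Percent activity was relative to 20 uM Triacsin C.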
(In qHTS, concentration-response curves come from the screen itself.)

Setting [1] is: measured here: cell number channel AC50, cells fed with added oleic acid.
The mark [2] stands for this setting: measured here: lipid fluorescence (Fed channel) AC50, cells fed with added oleic acid.

On to `CCOc1ccc(NC(=S)NCc2ccc3[nH]c(C)cc3c2)cc1`, for which the cell number change is 7.2%. For the same molecule, the AC50 under setting [1] is 4.61 µM [rising, single point].

As to `Cn1c(SCc2ccccn2)nc2c1c(=O)[nH]c(=O)n2C`, under setting [2], the AC50 was 5.17 µM [falling, partial curve]. In the case of `COc1ccc(NC(=O)c2ccc(-n3cnnn3)cc2)c([N+](=O)[O-])c1`, the cell number change was found to be 42.6%. Also, under setting [1], the AC50 is 4.61 µM [rising, full curve]. For `Cn1ncc(Cl)c1C(=O)N1CCN(C(=O)c2ccco2)CC1`, the cell number change is 14.6%. For the same molecule, under setting [2], the AC50 is 6.51 µM [rising, single point].

With `S=c1[nH]nc(-c2cc(-c3ccccc3)n[nH]2)n1/N=C/c1cccc(Cl)c1`, the cell number change is -23%. Moreover, the AC50 under setting [2] is 25.9 µM [falling, single point]. On to `CN(C(=O)COC(=O)c1c2c(nc3ccccc13)CCCC2)c1c(N)n(Cc2ccccc2)c(=O)[nH]c1=O`, for which the cell number change came out at 57.5%. Under setting [1], the AC50 was 10.3 µM [rising, partial curve]. Regarding `CC(NC(=O)NCc1cccnc1)(C(F)(F)F)C(F)(F)F`, the cell number change was -14.1%. Further, under setting [2], the AC50 is 0.00461 µM [falling, full curve]. As to `O=C(NCCCO)c1ccc(CSc2nc3ccccc3c(=O)[nH]2)cc1`, the cell number change came to 1.59%. Same read-out and setting: to `Cc1nn(C)c(C)c1NC(=O)c1cnn2c(C(F)F)cc(-c3ccccc3)nc12` belongs 5.56%. On to `COc1ccc(CC(=O)Nc2ccc(-c3noc(COc4ccccc4C)n3)cc2)cc1`, for which the cell number change is -32.7%. Moreover, the AC50 under setting [1] was 13 µM [falling, partial curve]. Besides, the AC50 under setting [2] is 14.6 µM [falling, partial curve].

As to `CC(=O)Nc1nc(C)c(-c2csc(Nc3cccc([N+](=O)[O-])c3)n2)s1`, the AC50 under setting [2] is 0.58 µM [rising, full curve]. As for `O=C(c1cccc(S(=O)(=O)N2CCc3ccccc32)c1)N1CCCC(C(F)(F)F)C1` (stereo unspecified), the cell number change came to 6.81%. Besides, the AC50 under setting [2] was 14.6 µM [rising, partial curve]. Turning to `Cc1ccc(NC(=O)c2nc[nH]c2C(=O)N[C@@H](CCCCNC(=O)OC(C)(C)C)C(=O)OC(C)(C)C)cc1`, the cell number change worked out at 9.09%. Under setting [2], the AC50 is 2.59 µM [rising, full curve]. With `COc1cccc(Nc2ncnc3sccc23)c1`, the cell number change was 21.4%. Further, the AC50 under setting [2] is 2.31 µM [falling, full curve, poor fit]. Regarding `O=C1C2C3C=CC(CC3)C2C(=O)N1/N=C/c1c[nH]c2ccccc12` (stereo unspecified), the AC50 under setting [2] is 0.13 µM [rising, full curve, poor fit]. Consider `O=C(COC(=O)/C=C/c1cccc(Cl)c1)NC(=O)NCc1ccccc1`, for which the cell number change is -38.5%. Besides, the AC50 under setting [1] was 16.4 µM [falling, single point]. Further, the AC50 under setting [2] is 0.146 µM [falling, full curve, poor fit].

Consider `CC(=O)Nc1ccc(S(=O)(=O)Nc2nc3n(n2)C(c2ccccc2)CC(=O)N3)cc1` (stereo unspecified), for which the cell number change is -29.7%. In addition, the AC50 under setting [1] was 1.16 µM [falling, full curve, poor fit]. The AC50 under setting [2] is 3.26 µM [falling, full curve]. As to `O=C(CSCc1ccc(Cl)cc1Cl)Nc1ccc(O)cc1C(=O)O`, the cell number change amounted to 20.4%. In addition, the AC50 under setting [2] was 29.1 µM [rising, single point].

Take `COCCn1c(=S)[nH]c2cc(C(=O)N(CCO)Cc3ccccc3)ccc2c1=O`: the cell number change was -30.9%. Also, the AC50 under setting [1] was 5.8 µM [falling, partial curve]. As to `CC(C)CNC(=O)COC(=O)c1ccccc1OCC(=O)Nc1ccc(Br)cc1`, the cell number change amounted to 5.22%. Besides, the AC50 under setting [2] was 0.58 µM [rising, full curve, poor fit].

Regarding `COC(=O)[C@H](CCSC)NC(=O)Nc1ccc(C)cc1`, the cell number change came to 2.05%. Regarding `OC1(C#CCCN2CCCCC2)c2ccccc2-c2ccccc21`, the cell number change was 2.13%. Also, the concentration at half-maximal activity (AC50) under setting [1] was 6.51 µM [falling, single point]. The AC50 under setting [2] was 0.0259 µM [rising, full curve, poor fit]. `CSc1ccccc1C(=O)N1CCc2ccccc2C1`: the cell number change was -3.28%. Further, the AC50 under setting [2] was 0.116 µM [falling, partial curve, poor fit]. For `CCOC(=O)CCCCCN1C(=O)c2cccc3cccc(c23)C1=O`, the cell number change was 1.66%. Also, under setting [2], the AC50 is 6.51 µM [falling, single point]. Turning to `O=C(NN1CCOCC1)c1cc(-c2ccc(Cl)c(Cl)c2)nc2ccccc12`, the cell number change is 11.8%. The AC50 under setting [2] is 1.64 µM [rising, partial curve].

With `CN(C)c1ccc(N=Nc2ccccc2C(=O)OCC(=O)Nc2ccccc2C(F)(F)F)cc1`, the cell number change is -82.4%. Besides, the AC50 under setting [1] is 29.1 µM [falling, single point]. Besides, the AC50 under setting [2] was 2.59 µM [rising, partial curve]. As for `COc1ccccc1CNC(=O)CCCc1nnc2n(C)c(=O)c3sccc3n12`, under setting [2], the AC50 is 1.64 µM [falling, partial curve, poor fit]. In the case of `Cc1nc2c(cc(Oc3ccc(S(=O)(=O)N4CCOCC4)cn3)c3ccsc32)s1`, the cell number change is -9.31%. Regarding `COCc1nnc(NC(=O)COc2ccc3c(c2)OCO3)s1`, the cell number change was determined as 0.855%. Under setting [2], the AC50 is 2.06 µM [rising, single point]. Consider `CCCc1cc(=O)n2nc(N3CCC(C(=O)Nc4c(F)c(F)c(F)c(F)c4F)CC3)sc2n1`, for which the cell number change turned out to be 22.8%. Also, under setting [2], the AC50 was 25.9 µM [rising, single point]. Turning to `CC(=O)c1ccc(N2CCN(S(=O)(=O)c3ccc(-c4cnc(C5CC5)o4)cc3)CC2)cc1`, the AC50 under setting [2] is 29.1 µM [rising, single point]. Consider `COc1ccc(/C=N/Nc2nc(N3CCCC3)nc(N3CCCC3)n2)cc1O`, for which the cell number change was -13.6%. Moreover, the AC50 under setting [2] is 29.1 µM [falling, partial curve, poor fit].

Turning to `COc1cc2nc(COc3ccccc3[N+](=O)[O-])oc(=O)c2cc1OC`, the cell number change was determined as 44.3%. The AC50 under setting [1] is 6.51 µM [rising, partial curve]. Under setting [2], the AC50 is 6.51 µM [rising, partial curve]. On to `COc1ccc(C(C)C)cc1S(=O)(=O)N1CCN(C)CC1`, for which the cell number change turned out to be 14.6%. In the case of `Cc1[nH]n2cnnc2c(=O)c1Br`, the cell number change was found to be 8.07%. Further, the AC50 under setting [2] is 16.4 µM [rising, partial curve]. Take `Fc1ccccc1N1CCN(c2nnnn2-c2ccccc2)CC1`: the AC50 under setting [2] is 4.11 µM [rising, partial curve, poor fit]. `Cc1ccc(C(=O)Nc2cc(Cl)ccc2-n2cncn2)o1`: the cell number change came to 3.49%. Besides, the AC50 under setting [1] is 0.651 µM [rising, full curve, poor fit]. Moreover, the AC50 under setting [2] is 0.58 µM [rising, full curve]. For the molecule `CCOc1ccc(N(CC(=O)Nc2ccc(C)c(F)c2)C2=NC3CS(=O)(=O)CC3S2)cc1` (stereo unspecified), the cell number change was found to be 21.7%. With `CCC(=O)Nc1ccc(C(=O)COC(=O)CCN2C(=O)C3CC=CCC3C2=O)cc1` (stereo unspecified), the AC50 under setting [2] was 6.51 µM [rising, partial curve]. `CCOc1ccc(C(=O)NCC2CCCN2S(=O)(=O)c2cccs2)cc1` (stereo unspecified): the cell number change is -16.2%. In addition, the AC50 under setting [1] was 2.31 µM [rising, partial curve].

Turning to `CCCOCC1CC2(SC(=Nc3ccc(C)cc3)NC2=O)C(=O)O1` (stereo unspecified), under setting [2], the AC50 is 4.61 µM [falling, single point]. On to `CC(C)CNC(=O)c1ccccc1NC(=O)Nc1ccccc1`, for which the cell number change came to 51.1%. The AC50 under setting [1] was 2.31 µM [rising, full curve]. Besides, the AC50 under setting [2] is 3.66 µM [rising, partial curve].

On to `CC(=O)c1ccccc1NC(=O)COC(=O)Cc1cccc(C(F)(F)F)c1`, for which the cell number change came to 20.6%.

`O=C(NCc1ccc(F)cc1)c1ccc2c(=O)n3c(nc2c1)CCCCC3`: the cell number change was found to be 1.44%. The AC50 under setting [2] is 0.291 µM [rising, single point]. Turning to `O=C(OCn1nnc2ccccc2c1=O)c1cccc(S(=O)(=O)N2CCOCC2)c1`, the cell number change is -7.98%.

With `Cc1oc(-c2cccs2)nc1CS(=O)CC(=O)NCc1ccc2c(c1)OCO2` (stereo unspecified), the cell number change worked out at 23.1%. Besides, the AC50 under setting [1] was 0.00651 µM [rising, full curve, poor fit]. Further, the AC50 under setting [2] was 16.4 µM [rising, partial curve]. In the case of `CCc1cc(=O)oc2cc(OC(C)C(=O)NCC3CCC(C(=O)O)CC3)c(Cl)cc12` (stereo unspecified), the cell number change was found to be 23.6%.

As to `CN(c1cc(=O)n2ccccc2n1)C1CCCCC1`, the cell number change turned out to be 0.0568%. Moreover, the AC50 under setting [2] was 0.82 µM [rising, full curve].

Consider `COc1ccc(C(=O)C2CCN(C(=O)c3ccco3)CC2)cc1`, for which the cell number change was 41.1%. Besides, the AC50 under setting [1] is 29.1 µM [rising, single point]. The AC50 under setting [2] is 29.1 µM [rising, single point].

For the molecule `COc1ccc2cc3c(N)nn(C(=O)Cc4ccc(Cl)cc4)c3nc2c1`, the cell number change is -39.7%. Besides, the AC50 under setting [1] is 9.2 µM [falling, partial curve, poor fit]. In addition, under setting [2], the AC50 was 0.00461 µM [rising, full curve, poor fit]. As to `CC1CCCCC12NC(=O)N(CC(=O)N1CCN(c3ncccn3)CC1)C2=O` (stereo unspecified), the cell number change was -20.8%. Also, the AC50 under setting [2] was 32.6 µM [falling, single point].

For `CCCc1[nH]n(-c2nc3ccccc3s2)c(=O)c1C=NCC(C)C`, the cell number change was 25.8%. The AC50 under setting [2] is 6.51 µM [rising, single point]. As to `O=C(c1ccc(S(=O)(=O)Nc2ccccc2Cl)cc1)N1CCOCC1`, the cell number change amounted to 125%. Further, under setting [1], the AC50 was 29.1 µM [rising, single point]. In the case of `CCCCNC(=O)CC1SC(=NCC)N(CC)C1=O` (stereo unspecified), the AC50 under setting [2] is 4.11 µM [rising, single point]. The same measure, in the same setting: to `CC(=O)Nc1ccc(SC(C)C(=O)NC(N)=O)cc1` (stereo unspecified) belongs 20.6 µM [falling, partial curve]. With `COCc1[nH]nc2c1C(c1c(F)cccc1Cl)C(C#N)=C(N)O2` (stereo unspecified), the cell number change was -31.6%. Moreover, the half-maximal activity concentration (AC50) under setting [1] was 1.46 µM [falling, full curve, poor fit]. Take `COC(=O)c1ccc(OCC(O)CN2CCc3cc(OC)c(OC)cc3C2c2ccccc2)cc1` (stereo unspecified): the cell number change is 16.1%. Consider `c1cc2c3c(cccc3c1)NC1(CCCCCC1)N2`, for which the cell number change amounted to 8.26%. Moreover, the AC50 under setting [2] is 2.06 µM [rising, single point]. Consider `Nc1c(C(=O)Nc2cccc(C(=O)O)c2)sc2nc3c(cc12)CCCC3`, for which the cell number change was -4.05%. Further, the AC50 under setting [2] is 6.51 µM [rising, single point]. Turning to `COc1ccccc1C(O)(C(=O)N(NC(C)=O)c1ccccc1)c1ccccc1OC`, the cell number change is -15.3%. The AC50 under setting [2] is 2.91 µM [rising, single point].
